Construct, isoform or probe ends are uncertain for at least one entry. A weaker result is weaker than the reference pair of the same experiment. Protein sequences can lack the tags named with them.
Target: T1, Cra wild type (Escherichia coli) (UniProt P0ACP1)
T1 sequence (looked up, limits assumed): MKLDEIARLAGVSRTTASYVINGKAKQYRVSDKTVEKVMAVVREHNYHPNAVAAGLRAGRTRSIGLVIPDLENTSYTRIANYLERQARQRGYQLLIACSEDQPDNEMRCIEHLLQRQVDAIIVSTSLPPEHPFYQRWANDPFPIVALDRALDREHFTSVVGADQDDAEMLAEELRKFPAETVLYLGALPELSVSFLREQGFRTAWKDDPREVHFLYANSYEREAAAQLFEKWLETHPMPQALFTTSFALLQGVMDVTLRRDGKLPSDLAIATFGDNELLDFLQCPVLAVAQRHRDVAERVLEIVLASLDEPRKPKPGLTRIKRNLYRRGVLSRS
Test: EMSA
Settings: 1 mM FBP, weaker than without FBP; EMSA: 50 nM oligonucleotide mixture annealed in TE buffer, with or without 1 mM FBP, 15 min at 30 C, nondenaturing 10% polyacrylamide gel, ethidium bromide; recombinant protein; protein details: His6; label: none (ethidium bromide stain)

“TCGTTAAGCGATTCAGCA (double strand) [aceBAK 18-bp Cra site]”: binds more weakly.

Reference: publication PMC5109907, “Enhancing succinic acid biosynthesis in Escherichia coli by engineering its global transcription factor, catabolite repressor/activator (Cra)” (Scientific Reports, 2016)
